From paper PMC5540560
Results are given in words; binding and its absence hold for the method and conditions named. Binding seen in cells or lysates may run through a third protein. Some results given as binding are weak or reduced against the parent protein; the word gives no strength.

Amino acid sequences for entries named in this document (tags omitted).
UniProt P27338: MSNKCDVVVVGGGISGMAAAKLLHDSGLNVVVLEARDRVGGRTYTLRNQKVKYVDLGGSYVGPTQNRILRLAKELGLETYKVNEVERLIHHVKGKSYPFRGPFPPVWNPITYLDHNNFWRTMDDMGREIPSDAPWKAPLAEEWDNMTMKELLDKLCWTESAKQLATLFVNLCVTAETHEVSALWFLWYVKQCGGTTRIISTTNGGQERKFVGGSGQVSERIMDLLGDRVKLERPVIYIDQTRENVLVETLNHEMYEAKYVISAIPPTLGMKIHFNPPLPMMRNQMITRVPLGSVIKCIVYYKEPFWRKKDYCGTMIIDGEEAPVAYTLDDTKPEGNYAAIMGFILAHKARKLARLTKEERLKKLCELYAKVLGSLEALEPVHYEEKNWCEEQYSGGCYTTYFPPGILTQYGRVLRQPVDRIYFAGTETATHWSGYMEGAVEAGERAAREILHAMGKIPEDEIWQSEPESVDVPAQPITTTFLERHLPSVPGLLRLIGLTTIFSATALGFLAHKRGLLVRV

Biological target: monoamine oxidase B (human) (human (endogenous in postmortem human brain)) (UniProt P27338)
Assay: co-IP; microsomes from postmortem human brain cortex preincubated with rabbit anti-MAO-B (M1821 or OB1418), protein A-Dynabeads; detection with anti-Nicastrin or anti-PS1 IgG

nicastrin (human) (from UniProt Q92542 34-709)
binding: binds
